The exact form of at least one protein or probe is not confirmed. The comparison behind a weaker result is the experiment's own reference, which may not be listed here. Where a protein sequence is shown, tags need not be part of it.

For the series, the target named is T1, TagI (Thermocrispum agreste) (UniProt A0A3F2YM30).
T1 sequence (looked up, limits assumed): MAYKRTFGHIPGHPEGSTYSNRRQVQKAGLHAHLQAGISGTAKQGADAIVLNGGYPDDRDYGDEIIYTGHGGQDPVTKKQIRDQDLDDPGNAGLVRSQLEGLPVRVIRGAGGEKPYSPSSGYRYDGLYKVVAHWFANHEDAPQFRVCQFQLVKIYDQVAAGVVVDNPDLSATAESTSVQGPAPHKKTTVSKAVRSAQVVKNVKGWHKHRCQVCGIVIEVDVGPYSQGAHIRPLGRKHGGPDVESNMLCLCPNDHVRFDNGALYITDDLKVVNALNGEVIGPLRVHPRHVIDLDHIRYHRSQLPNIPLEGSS
Nature of the series: analytical gel filtration (SEC co-migration). The settings on record: broad complex peak, less tight than fully methylated.

As to “CCTAGAGCAGCAATCCC (double strand) [17mer hemimethylated duplex, bottom strand 5mC]”, the binding result (5mC at position 8 of strand 2, recombinant protein) is “binds more weakly”.
On to “CCTAGAGCAGCAATCCC (double strand) [17mer hemimethylated duplex, top strand 5mC]”, for which the binding result (5mC at position 8 of strand 1, recombinant protein) is recorded as “binds more weakly”.

(Values after paper PMC6212794, “Crystal structure of the modification-dependent SRA-HNH endonuclease TagI”.)
